We go through 150 substances from the supplement of paper PMC5949888.

Most values lie at the floor of the assay. Slopes are relative: functional sequences can read slightly below zero.

The subject of the data set is Saccharomyces cerevisiae PS128 hsf1 delta, HSF1(1-493) fusion. The experiment in a line: growth estimate (transactivation domain function in HSF1 fusion, heat-shock survival) (a.u. (slope of normalised read count over time)); higher = stronger growth at 37°C, i.e. more transactivation activity. The settings on record: library: random library. The method, then:
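Random 60-nt DNA library encoding peptides of up to 20 aa, fused to the C-terminus of yeast HSF1 residues 1-493 (C-terminal TAD deleted) and expressed from the native HSF1 promoter on a CEN plasmid in hsf1-deleted S. cerevisiae PS128. Cells were selected at 37°C on -trp 5-FOA plates for 0, 2, 4, 6 and 8 days and amplicons were sequenced. Growth estimate is the slope of a robust linear fit of total-sum-normalised read counts (normalised to the first time point) over time, using at least 2 replicates. Sequences are classed functional (TAD activity) above a threshold of -0.13, set from stop-codon control sequences.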
As for GWHLESPQVNRLEHMLSFPK, the growth estimate was below -0.25.
To CYVSIGPSISGAQDGVRLHC belongs below -0.25; to LTAKV, below -0.25.
The result for AGW reads below -0.25; that for AWTDKVRKSLNECVLSGPSG, below -0.25.
To LPPS belongs below -0.25; to DLGVVQVLYRLL, below -0.25.
Regarding FEGLESRVGATAATIRYSRP, the growth estimate is below -0.25.
To MGIIRTDKPIQLVR belongs below -0.25; to ASRSLFLRSVRRDLLLTRMS, -0.197.
The result for EPRRPAVTGVGGCTGGASGV reads below -0.25.
The result for GILRGAGQIANGPMVVMAGQ reads below -0.25; that for FIVQVGTVQCGFLSIAFANT, below -0.25.
For the substance FGWSKRLWILSTMRLMTQGD, the growth estimate was below -0.25.
For RLAAGPRNQFISSCIASTNA, the growth estimate is below -0.25.
The result for KNTAGRNARTPANSASVERL reads below -0.25.
TCVNRASVFSQRLCHPRSNH: the growth estimate is below -0.25.
To GTGTHLCICGIDQTDIARTR belongs below -0.25.
The result for HQWYYAISERIS reads below -0.25.
For the substance SHMHRSKPLRCCFYCNPEPR, the growth estimate was below -0.25.
The result for EWIVHASPGGAVNTGLGVKL reads -0.245; that for FPRMSGKTLWWLSCLPSSGD, below -0.25; that for GLSVQHQSMPLQFF, below -0.25.
As to GVYTCGGSRPLRTVRETESF, the growth estimate is below -0.25.
The result for LVFRRSRLCIPRLVKPSA reads below -0.25.
The result for RSTYPREF reads below -0.25; that for PATSQRSGLPQWICADDATS, below -0.25; that for VDIPAGYVISGIWSDCCRLN, below -0.25.
To VAPDNAELTGAAASAGTVTC belongs below -0.25.
For ELDCHVLELGAEALPCMHGS, the growth estimate is below -0.25.
To NWRYRQLLLTLCKTRAPYTL belongs below -0.25; to NRDWGQSSVLLLF, below -0.25.
Regarding TPIKSRYVNGTVLACSYERA, the growth estimate was below -0.25.
The result for RVPANRGPALRRGGVGGSKT reads below -0.25; that for FFGEGQFTVIDRRLGMRRPH, below -0.25; that for VMRECTGSHVTMQVCSDRAI, below -0.25.
The result for QGSDFLAFQKPVLQSAVTLT reads below -0.25; that for VSGAAFLMGTRAYVSRGAWA, below -0.25.
The result for EARQRIETIGPDKAALCVRA reads below -0.25; that for VVGGIVGPTYGARADSAFWS, below -0.25; that for LTSASIKGLSVSRSLQTYLG, below -0.25.
Turning to VRGSRGLACRVTARY, the growth estimate is below -0.25.
In the case of MSVMSGRICTLNEQPARNPL, the growth estimate is below -0.25.
To DVIRR belongs below -0.25; to RAGTLRFGGYRL, below -0.25.
The result for PFRGSNSRNSPLRSRAKRPR reads below -0.25.
The result for AEGSRDIGVLIVDCFNLSFV reads below -0.25; that for RRSINWVQGEA, below -0.25; that for GPAHRKGASLKTGNTATTVR, below -0.25.
On to RSPEISRGDREKPCPG, for which the growth estimate was below -0.25.
The result for EHQR reads below -0.25; that for KIESGKLGLINEISPHNGDC, below -0.25.
For the substance LVRS, the growth estimate was below -0.25.
Consider GLRCAPETSSVN, for which the growth estimate is below -0.25.
Consider RSVALPGGDQKRAAEASTTH, for which the growth estimate was below -0.25.
The result for HWAFRWDRRSLPTQWVCAAC reads below -0.25; that for HVLECAGSTIR, -0.243; that for NPKCHII, below -0.25.
Consider RSDQALRWEPRKS, for which the growth estimate was below -0.25.
To QESSHCYDLNLMKSRNPNSH belongs below -0.25; to LLSDVTGRLLARMTKRTSLG, -0.245; to GIHDVSGKANIRSTISLPTK, below -0.25.
In the case of RMLLPPRFQWGRLLVK, the growth estimate is below -0.25.
To LRKKLQSI belongs below -0.25; to RVIAAVRVGLGAPFVNPLSS, below -0.25; to FRRMDYMLNGKLRQDVACEQ, below -0.25.
The result for DRCTHGCDYIRSI reads below -0.25; that for LSGGASVDSQSHRRSMAFRA, below -0.25; that for AGKLPRFGSSPWCFYEQADT, below -0.25.
The result for AKFGLVDDSV reads below -0.25.
For the substance GRVVEEKILRAAEPSRNDGK, the growth estimate is below -0.25.
GFEDSRRI: the growth estimate is below -0.25.
The result for AGQRAHW reads below -0.25; that for GMGAFMFLC, below -0.25; that for RQIHGVGPRVCAAYVQVMTG, below -0.25.
The result for GKVSIAVRSLDQPIGDWLAR reads below -0.25; that for SSCRLAFGHARCMVG, below -0.25; that for EGRKHSISACFK, below -0.25.
With SRIYLAIAITAVDASLPGRT, the growth estimate is below -0.25.
The result for SGTRGEHLR reads below -0.25; that for GCLMHYRVKSVPGITLRFSS, below -0.25; that for REEPCVY, -0.25.
To KRNGQLIVRSRGVHPVWRRG belongs below -0.25.
To IYESWYVLG belongs below -0.25; to RKELLEVLERC, below -0.25; to DIFHGAKLAEKSTTTCHISV, below -0.25.
For KAVPQKLFGELPDLANTSTV, the growth estimate was below -0.25.
To RFNIDETKELRLELLNTG belongs below -0.25.
On to VVPSLVQPEAEPGGI, for which the growth estimate is below -0.25.
The result for RLDDDVKNHGSFRSPVS reads below -0.25; that for KAGMIKVCQFSPGFLEVDSV, below -0.25.
To SFSACMQYRWGLSNVMSAHR belongs -0.243; to LCDSFIHRSWVAVT, below -0.25.
Consider YVCSPGSWDSIPAWDLSVAR, for which the growth estimate was below -0.25.
The result for VASTW reads below -0.25; that for MRRSFAVCFLALDTRRGPSR, below -0.25; that for NRKCRSQCDQMFRIKVLRPL, below -0.25.
To MLRDRRCPV belongs below -0.25.
For the substance AIAPEGPADQRARI, the growth estimate is below -0.25.
The result for RSSVK reads -0.232.
For the substance FGHNCSGIR, the growth estimate was below -0.25.
Take GNLYRG: the growth estimate is -0.248.
Regarding VCI, the growth estimate is below -0.25.
To QGLVPLEVA belongs below -0.25; to TTDAYCLQALGLVGDEWLAN, below -0.25.
Consider PQG, for which the growth estimate was below -0.25.
Turning to HVPS, the growth estimate was below -0.25.
To RHCLIRRERFASTRLPPLRS belongs below -0.25.
On to PMRPATQWVWEMVPALDQAL, for which the growth estimate was below -0.25.
On to FCFEKQMD, for which the growth estimate was below -0.25.
To VSRPG belongs below -0.25; to CFPHQLSLGGCLGYGYLGSR, below -0.25.
Turning to SANY, the growth estimate was below -0.25.
DAG: the growth estimate was -0.245.
To RCVTESQ belongs below -0.25.
To GLGSFEGRDRKLRSRSTSIC belongs below -0.25.
To ASTQLRIS belongs below -0.25.
GVLNRRSSWSRLSM: the growth estimate is below -0.25.
The result for EILTPLQIIMSQKAAYP reads below -0.25.
Turning to SRGHSPWYDA, the growth estimate was below -0.25.
To QGVPTYFAVM belongs below -0.25; to IEGFHSKRRRAMDIESGFQF, 0.851; to LKRLTLRRRAALWMHESGHV, below -0.25.
To AVKR belongs below -0.25; to GVYSCAIRMKDESQGLALGV, below -0.25; to YAFFGC, below -0.25.
The result for KSSGERKLNRIVGEGPSVKL reads below -0.25; that for DHGVYWRSKAKGATSSRIPN, below -0.25.
As for YASN, the growth estimate was below -0.25.
To SDLDLADKDRIAL belongs below -0.25; to GKQVRWPRMGWSGGRRESP, below -0.25.
The result for RPSLHVYDPRRSISGVLDAH reads below -0.25.
To QCRRFSKVTMVSRTRDGDPA belongs below -0.25; to SSSDVILGREVMFKGERMPP, below -0.25.
On to RRMGRYRGVDTRRQSYSNTV, for which the growth estimate is below -0.25.
The result for MLGSRFGPVGVHV reads below -0.25; that for IASDPRIERGHTRRLEMPPG, -0.246.
Consider RSECPLS, for which the growth estimate was below -0.25.
To CETGTMRTL belongs below -0.25; to GPSYLGDHNFKSVTWAGVIV, below -0.25; to IGPVPILPTA, below -0.25.
As for VHYILTLDRTV, the growth estimate was below -0.25.
To LREYPRSRVGYGSLITGVKR belongs below -0.25; to YLPDGYNLSRDGDTWCNSDG, below -0.25; to GLDSTKTIDI, below -0.25.
To CTRRGTNQVGGRVPGPAGGL belongs below -0.25.
The result for RGSVRKLT reads below -0.25; that for PHNLVRRQ, below -0.25; that for LQVDGS, below -0.25.
For the substance GWRTDWVAAQRDCCPVAPRR, the growth estimate was below -0.25.
